Record: PubChem BioAssay AID652272 (Drosophila RNAi Screening Center, 2013)

Purpose: 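Finding fly genes that regulate Hedgehog signal transduction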 (primary screen)
Cell system: Drosophila clone 8 (Cl8) cells
Knock-down reagent: long dsRNA against Drosophila genes
Measurement: 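Plate reader light from a firefly reporter under a ptc promoter fragment that responds to Hedgehog, with Renilla light as transfection reference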
Scale: firefly Hh reporter signal: higher = more ptc reporter light; Renilla reference signal: higher = more Renilla control light
Rule for the call: 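Called a hit if the two-replicate mean z-score lies below -2 or above +3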
Meaning of the calls: active = hit: reporter lowered or raised; inactive = not a hit
In all, the deposit lists about 21,000 reagents; shown is a random part of those with a known target gene and a result. Over the whole deposit, 503 (2.4%) are marked active. 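Raw plate light values, not normalised; calls rest on replicate z-scores that were not deposited; hits include reporter decreases as well as increases.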 Not stated in the record: the amount of reagent, the time to read-out.

Osi15 [DRSC12178]: firefly Hh reporter signal, replicate 1 = 48568; firefly Hh reporter signal, replicate 2 = 1.04e5; Renilla reference signal, replicate 1 = 2647; Renilla reference signal, replicate 2 = 3291; call = inactive
PGRP-LC [DRSC08980]: firefly Hh reporter signal, replicate 1 = 80776; firefly Hh reporter signal, replicate 2 = 1.86e5; Renilla reference signal, replicate 1 = 2050; Renilla reference signal, replicate 2 = 7536; call = inactive
PGRP-LC [DRSC10416]: firefly Hh reporter signal, replicate 1 = 30809; firefly Hh reporter signal, replicate 2 = 68240; firefly Hh reporter signal, replicate 3 = 82538; Renilla reference signal, replicate 1 = 4872; Renilla reference signal, replicate 2 = 5877; call = inactive
PGRP-LC [DRSC10417]: firefly Hh reporter signal, replicate 1 = 19046; firefly Hh reporter signal, replicate 2 = 38178; firefly Hh reporter signal, replicate 3 = 63909; Renilla reference signal, replicate 1 = 2706; Renilla reference signal, replicate 2 = 3853; call = inactive
Rab14 [DRSC03403]: firefly Hh reporter signal, replicate 1 = 1.11e5; firefly Hh reporter signal, replicate 2 = 57089; Renilla reference signal, replicate 1 = 4646; Renilla reference signal, replicate 2 = 3136; call = inactive
ec [DRSC17285]: firefly Hh reporter signal, replicate 1 = 4.53e5; firefly Hh reporter signal, replicate 2 = 2.18e5; Renilla reference signal, replicate 1 = 20007; Renilla reference signal, replicate 2 = 4481; call = inactive
ec [DRSC17286]: firefly Hh reporter signal, replicate 1 = 3.87e5; firefly Hh reporter signal, replicate 2 = 2.27e5; Renilla reference signal, replicate 1 = 17568; Renilla reference signal, replicate 2 = 4845; call = inactive
ec [DRSC18658]: firefly Hh reporter signal, replicate 1 = 58501; firefly Hh reporter signal, replicate 2 = 1.25e5; Renilla reference signal, replicate 1 = 2243; Renilla reference signal, replicate 2 = 5586; call = inactive
Lmpt [DRSC09450]: firefly Hh reporter signal, replicate 1 = 6.85e5; firefly Hh reporter signal, replicate 2 = 2.55e5; firefly Hh reporter signal, replicate 3 = 1.15e5; Renilla reference signal, replicate 1 = 5527; Renilla reference signal, replicate 2 = 5698; call = inactive
Lmpt [DRSC09864]: firefly Hh reporter signal, replicate 1 = 1.32e5; Renilla reference signal, replicate 1 = 1920; Renilla reference signal, replicate 2 = 3905; call = inactive
Lmpt [DRSC09865]: firefly Hh reporter signal, replicate 1 = 99644; firefly Hh reporter signal, replicate 2 = 53907; Renilla reference signal, replicate 1 = 4214; Renilla reference signal, replicate 2 = 2307; call = inactive
Lmpt [DRSC09866]: firefly Hh reporter signal, replicate 1 = 1.64e5; Renilla reference signal, replicate 1 = 2464; Renilla reference signal, replicate 2 = 4696; call = inactive
Lmpt [DRSC11107]: firefly Hh reporter signal, replicate 1 = 1.42e5; Renilla reference signal, replicate 1 = 2000; Renilla reference signal, replicate 2 = 4419; call = inactive

Entries listed so far whose gene name begins with P or p:
PGRP-LC [DRSC08980]: firefly Hh reporter signal, replicate 1 = 80776; firefly Hh reporter signal, replicate 2 = 1.86e5; Renilla reference signal, replicate 1 = 2050; Renilla reference signal, replicate 2 = 7536; call = inactive
PGRP-LC [DRSC10416]: firefly Hh reporter signal, replicate 1 = 30809; firefly Hh reporter signal, replicate 2 = 68240; firefly Hh reporter signal, replicate 3 = 82538; Renilla reference signal, replicate 1 = 4872; Renilla reference signal, replicate 2 = 5877; call = inactive
PGRP-LC [DRSC10417]: firefly Hh reporter signal, replicate 1 = 19046; firefly Hh reporter signal, replicate 2 = 38178; firefly Hh reporter signal, replicate 3 = 63909; Renilla reference signal, replicate 1 = 2706; Renilla reference signal, replicate 2 = 3853; call = inactive

Additional entries follow.
CG15127 [DRSC05802]: firefly Hh reporter signal, replicate 1 = 1.28e5; firefly Hh reporter signal, replicate 2 = 3.06e5; Renilla reference signal, replicate 1 = 3607; Renilla reference signal, replicate 2 = 11021; call = inactive
CG15127 [DRSC06549]: firefly Hh reporter signal, replicate 1 = 1.20e5; firefly Hh reporter signal, replicate 2 = 80073; Renilla reference signal, replicate 1 = 3264; Renilla reference signal, replicate 2 = 5060; call = inactive
CG8117 [DRSC20082]: firefly Hh reporter signal, replicate 1 = 61365; firefly Hh reporter signal, replicate 2 = 1.34e5; Renilla reference signal, replicate 1 = 1624; Renilla reference signal, replicate 2 = 6896; call = inactive
PHDP [DRSC04635]: firefly Hh reporter signal, replicate 1 = 86535; firefly Hh reporter signal, replicate 2 = 69449; Renilla reference signal, replicate 1 = 1808; Renilla reference signal, replicate 2 = 5868; call = inactive
CG34124 [DRSC00849]: firefly Hh reporter signal, replicate 1 = 6.56e5; firefly Hh reporter signal, replicate 2 = 2.07e5; Renilla reference signal, replicate 1 = 30796; Renilla reference signal, replicate 2 = 8208; call = inactive
OstDelta [DRSC06980]: firefly Hh reporter signal, replicate 1 = 1.35e5; firefly Hh reporter signal, replicate 2 = 91213; Renilla reference signal, replicate 1 = 5437; Renilla reference signal, replicate 2 = 4304; call = inactive
CG11291 [DRSC04097]: firefly Hh reporter signal, replicate 1 = 92279; firefly Hh reporter signal, replicate 2 = 48486; Renilla reference signal, replicate 1 = 2290; Renilla reference signal, replicate 2 = 3632; call = inactive
amx [DRSC18736]: firefly Hh reporter signal, replicate 1 = 38869; firefly Hh reporter signal, replicate 2 = 1.32e5; Renilla reference signal, replicate 1 = 1562; Renilla reference signal, replicate 2 = 5986; call = inactive
